From US10696661B2, “Compounds” (Exonate Limited, priority 2015, dated 2020)
The match of structure and compound is tentative.

System: laser-induced choroidal neovascularisation (CNV)
Assay: Laser-induced choroidal neovascularisation (CNV) in mice, topical eye drops
Conditions: mouse, dose response trial

O=C(Nc1cc(C(F)(F)F)ccc1N1CCN(Cc2ccccn2)CC1)c1ccc(-c2ccncc2)o1
lowest dose at which effective as eye drop: 2 µg/mL
